# Test results published in the supplement of paper PMC3334620.
# Whole data set: some 33,000 sequences, median “E-score (-0.5 to 0.5)” near -0.0059, cut for the highest 2% near 0.26. This is one part of the list.
# Biological target: T1, Cin5 (UniProt P40917)
# T1 sequence: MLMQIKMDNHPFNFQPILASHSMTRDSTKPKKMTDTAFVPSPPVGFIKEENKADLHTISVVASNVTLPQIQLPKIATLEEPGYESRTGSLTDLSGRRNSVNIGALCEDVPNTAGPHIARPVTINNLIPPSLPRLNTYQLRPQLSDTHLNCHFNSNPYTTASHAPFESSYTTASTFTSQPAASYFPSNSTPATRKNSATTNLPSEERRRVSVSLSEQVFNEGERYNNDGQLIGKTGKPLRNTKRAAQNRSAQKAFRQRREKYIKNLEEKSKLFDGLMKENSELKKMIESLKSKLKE
# Test: PBM E-score (8-mer binding enrichment) (E-score (-0.5 to 0.5)); higher = stronger / more preferred TF binding
# Conditions: protein concentration: 100 nM; construct: GST-full length
# Method in brief: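 Masliner-normalised scans of fluorescent anti-GST signal were the basis for scoring. That signal came from GST-tagged yeast transcription factors applied at about 100-200 nM to double-stranded universal all-10-mer Agilent arrays on fresh or once-stripped slides. Each ungapped eight-base word, pooled with its reverse complement, received an E-score from the Universal PBM Analysis Suite.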
row,Sequence,PBM E-score
1,ATCTAAAC,-0.0621
2,TTCGCAAA,0.218
3,AACCCCTG,-0.172
4,ACTGCCAA,-0.0251
5,AGTTGATC,0.0859
6,AGGAGAAT,-0.0675
7,AGAATATC,0.113
8,ACGAACGA,0.0977
9,GTTTGTGA,0.0178
10,AGACATGG,0.122
11,AGACGTGA,0.112
12,CGTCATGC,0.0536
13,ATCAATGG,0.0495
14,AACTGAGC,-0.145
15,CCGATAGG,0.0342
16,CTGCCACC,-0.266
17,ACAAGCGC,0.0323
18,ACCGAATC,-0.0204
19,GCATGTCC,-0.192
20,ACGCATCT,0.0745
21,CAGTCGCA,-0.106
22,TGTAGACA,0.0508
23,CGGCTCAG,-0.0147
24,CATGATAA,0.195
25,CTGTTCTA,-0.0447

row,Sequence,PBM E-score
1,CTCGGAAC,0.0456
2,ATCGTGTA,0.0563
3,ACGCATAG,-0.0217
4,CACACCTA,-0.00955
5,CGGGGCCA,-0.187
6,ACTGGCAT,-0.144
7,CAATTATG,0.141
8,ACGCATAT,0.171
9,TATTACGA,0.257
10,CCTCGTTC,-0.174
11,ATATTGAT,0.249
12,ATCAAACA,0.274
13,AATCCCAA,0.0459
14,TTTCGAAA,0.0829
15,AGGTACTG,-0.0631
16,GGGACCAC,-0.174
17,ATTAGACA,0.0378
18,ACGGAGAT,-0.0366
19,AAATTAAC,0.182
20,AGCCGATG,-0.023
21,CTGGTCCC,-0.308
22,CCAACGAG,-0.121
23,AACTATTA,0.193
24,ACTTAATG,0.227
25,ATATTATG,0.379

# Pulled one by one from the entries so far, five records:
row,Sequence,PBM E-score
21,CTGGTCCC,-0.308
23,CGGCTCAG,-0.0147
5,CGGGGCCA,-0.187
16,GGGACCAC,-0.174
10,CCTCGTTC,-0.174

# Remaining list, next part.

row,Sequence,PBM E-score
1,GTCGCTAA,0.0236
2,ATATGCAA,0.0615
3,CATCCTCG,-0.0784
4,AGCGTTCC,0.00059
5,GATTAATC,0.145
6,CTATTGAG,0.144
7,CTACTCTA,0.0932
8,GATCTGAC,-0.0318
9,CGATTAAA,0.156
10,ATTTGGTA,0.252
11,CCCGGGTC,-0.141
12,AGCGCGGC,-0.0509
13,CGGGTAAA,0.183
14,AGGGCTCG,-0.248
15,AAGAAATG,0.147
16,CCTCACCA,-0.00298
17,ACCGAGGG,-0.414
18,AAGTGGTA,0.0427
19,ATTTTTGA,0.135
20,CCAACTAC,0.0604
21,CCGCTCAG,-0.172
22,CCATCGAG,0.0359
23,TATTAATA,0.297
24,CTCCTCGA,-0.13
25,ACGGACAC,0.0112

row,Sequence,PBM E-score
1,CAACACGG,-0.117
2,CTTCGCGC,0.186
3,GACACAGA,0.0545
4,AAGGGACT,-0.0894
5,CAGCCTAA,-0.202
6,AAGACTAT,0.0701
7,AAGATTCA,0.115
8,CCACGCCG,-0.167
9,AATGGTTA,0.0582
10,TCCATAAA,0.064
11,CGATCCTC,-0.118
12,ACGTACTC,0.178
13,CCCTATAA,-0.122
14,GTCTCCAC,-0.0662
15,CTCTGGTC,-0.155
16,AAGGCAGA,-0.035
17,CAGCGATA,-0.0474
18,GATCCAGA,0.0366
19,AGATAATC,0.197
20,CTGGACTA,-0.116
21,CAGGTTCA,-0.159
22,CCAAGGAG,-0.073
23,GCGATCTA,0.068
24,CGTGTGAA,-0.0465
25,ATCGAGAC,-0.0281

row,Sequence,PBM E-score
1,ATCGTGCA,0.0702
2,AGCCATAT,0.0514
3,GTTCATAA,0.0958
4,GTCTGTTA,0.194
5,AATCTACC,0.138
6,GACACCTA,-0.0562
7,ATTGATAG,0.151
8,ACACTTCT,0.0539
9,AGGGCGGC,-0.264
10,CAGCAGTC,-0.0173
11,CCATATAC,0.221
12,ATATAACA,0.284
13,CTATGAAA,0.0722
14,CGCTGAGA,0.0327
15,TGCGTACA,-0.0796
16,TACAACAA,0.244
17,ACTGTCCG,-0.0755
18,GCCAGAAA,0.205
19,CTGTGGTA,0.0732
20,AACCTTAC,0.152
21,CTGGGAAC,-0.0173
22,ACTTTGGA,0.0534
23,GGTTTAAC,0.0198
24,GCATCCAC,0.0722
25,ATGCGTTG,-0.00188

# Another view of some results above.
row | Sequence | PBM E-score
4 | AAGGGACT | -0.0894
5 | CAGCCTAA | -0.202

# Remaining list, next part.

row,Sequence,PBM E-score
1,ACTCTCTC,-0.0161
2,GACTTAAA,-0.16
3,ACTGTTTG,0.106
4,AGTATACA,0.135
5,ACAAGAAT,0.0397
6,CAGAGCAG,-0.00566
7,ACGGCCCG,-0.182
8,AATTGTAC,0.198
9,GAGTGCGA,-0.11
10,CAACATAC,0.125
11,ACTTCACA,0.0564
12,CCCAACGC,0.0858
13,CTTAAGCC,0.0161
14,ACCGGATC,0.0836
15,GGACAAGA,-0.0182
16,ATATTCAA,0.203
17,CCTAAGAA,-0.118
18,GTCCCCCA,-0.217
19,GCAATGCC,-0.0242
20,CCACGTAA,0.165
21,AACGATAC,0.0238
22,GCCGAAAC,-0.162
23,GCATCGCA,-0.227
24,AATTAGAT,0.294
25,GATAGTCC,-0.0317

row,Sequence,PBM E-score
1,CCACTCCG,0.0499
2,GATTGAGA,0.181
3,AAGGTTGG,-0.0399
4,GTATTGGA,-0.0766
5,AAGCTACG,-0.0898
6,CTTAGTCA,0.236
7,CAGTAATC,0.15
8,AGACAAAG,-0.00115
9,AACTTTAT,0.123
10,GCCATGTA,0.104
11,TAATAACA,0.146
12,ACGATCCA,-0.0778
13,ACTGACAT,0.0171
14,GGCTAAAA,-0.193
15,CCTCTAAC,-0.0941
16,AGACGAGA,0.0138
17,ATAGATCC,0.0534
18,ATTTTACG,0.271
19,CGAATGAG,0.0389
20,GGGACGTA,0.0216
21,AAAAGTGT,-0.0219
22,CTTGGGCA,0.0219
